PubChem BioAssay AID1259308 | NCATS | 2017
In all, the deposit lists about 59,000 reagents; shown is a part drawn at random. About 1,510 of all reagents (2.6%) count as active. 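Calls use total luciferase alone and ignore viability, so some active siRNAs may act by altering cell number.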 The numbers tell different reagents against one gene apart. Further read-outs or replicates are left out here.

Assay: 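Candidate targets for better recombinant protein yield in mammalian cells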 (primary screen)
Cell system: human HEK293 embryonic kidney cells stably expressing firefly luciferase (HEK-CMV-Luc2-Hygro)
Knock-down reagent: single siRNA against human genes, 0.8 pmol siRNA per well
Duration: 72 h
Read-out: 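Reporter luminescence and viable-cell signal on separate replicate plates, given as percent of non-targeting control and median/MAD z-scores, plus per-cell luciferase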
Scale: total luciferase, z-score: higher = more reporter protein produced
Rule for the call: 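Active when the median/MAD z-score for overall luciferase is greater than 3; a gene was taken forward for validation with new siRNAs if at least two of its three siRNAs passed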
Meaning of the calls: active = raised luciferase; inactive = no rise

total luciferase, z-score, by gene and reagent
LINC02245: #1 -0.535 inactive; #2 -1 inactive; #3 0.429 inactive
F8A1: #1 0.189 inactive; #2 1.3 inactive; #3 0.285 inactive
COX6C: #1 -0.0226 inactive; #2 1.13 inactive; #3 -0.17 inactive
TP53TG5: #1 0.0528 inactive; #2 1.55 inactive; #3 0.253 inactive
PTPRK: #1 0.157 inactive; #2 -0.501 inactive; #3 0.0822 inactive
ITGB4: #1 -1 inactive; #2 -0.682 inactive; #3 2.1 inactive
CSF1R: #1 0.808 inactive; #2 0.705 inactive; #3 0.876 inactive
TIAM1: #1 -0.684 inactive; #2 -0.313 inactive; #3 -1.13 inactive
ANKRD46: #1 1.11 inactive; #2 0.293 inactive; #3 -0.674 inactive
NLRP3: #1 -1.67 inactive; #2 -0.477 inactive; #3 -1.12 inactive
SPIN2B: #1 -0.0871 inactive; #2 0.781 inactive; #3 0.329 inactive
ACRV1: #1 1.56 inactive; #2 -1.12 inactive; #3 0.086 inactive
ZNF460: #1 1.77 inactive; #2 0.045 inactive; #3 -0.7 inactive

Reprinted from above, 3 entries:
total luciferase, z-score, by gene and reagent
COX6C: #3 -0.17 inactive
TP53TG5: #1 0.0528 inactive; #2 1.55 inactive
